System: phosphorylated tau
Assay: Nanogap biosensor impedance of microbeads bound to tau protein, reacted with AT8 antibody
Format: biochemical
Details: 100 uM Thiamet G, tau protein 0.5 pg/ml
Experimental: A tosylate-treated magnetic bead (Thermo Fisher, Dynabead M-280, diameter 2.8 μm, 14203) and a tau protein binding antibody (abcam, Anti-Tau (Phosphor S262) antibody, ab64193, 50 μl/250 μl) are inserted in a 0.1 M PBS buffer and placed in a 37° C. incubator, and incubated on a roll mixer for 24 hours.
Next, the magnetic bead bound to the tau protein binding antibody are washed with 0.4% Block ACE (AbD serotec, USA) and blocked with 0.2 M tris buffer. 30 mg/mL of the microbead solution was stored in PBST (Phosphate Buffered Saline with Tween-20, 0.01% Tween-20) containing 0.4% Block Ace.
The tau protein at a concentration of 5250 ng/mL was diluted 1/10 in various concentrations (0.5 fg/mL to 50 pg/mL) using 0.1% PBST. Tau protein was treated with Thiamet G, an O-glycosylation drug, if necessary.
The microbead bound to the tau protein binding antibody were diluted to 300 μl/ml using 0.1% PBST, and the tau protein (diluent) and the microbead (diluent) were mixed at a concentration of 1:2 and reacted in a refrigerator for 22 hours.
Next, the microbead bound to the tau protein is washed twice with 0.1% PBST and washed twice with PBS (Phosphate Buffered Saline). Thereafter, it is diluted to a bead concentration of 60 μl/ml using PBS. […]
The samples thus obtained were measured for impedance using a biosensor array (10×10 or 20×20) with an electrode interval of 0.7 μm. […]

`CCN=C1N[C@@H]2[C@@H](O)[C@H](O)[C@@H](CO)O[C@@H]2S1` [Thiamet G] gave a BAT2 impedance of 35.54 MΩ and a BAT impedance of 36.13 MΩ.

— US10520514B2, “Method for monitoring post-translational modification of protein” (KOREA INSTITUTE OF SCIENCE AND TECHNOLOGY, priority 2017, dated 2019)
